Experiment [1] concerns the target T1, Upf1 (rat (endogenous in sympathetic neurons of Sprague Dawley rats and in PC12 cells)).
T1 sequence: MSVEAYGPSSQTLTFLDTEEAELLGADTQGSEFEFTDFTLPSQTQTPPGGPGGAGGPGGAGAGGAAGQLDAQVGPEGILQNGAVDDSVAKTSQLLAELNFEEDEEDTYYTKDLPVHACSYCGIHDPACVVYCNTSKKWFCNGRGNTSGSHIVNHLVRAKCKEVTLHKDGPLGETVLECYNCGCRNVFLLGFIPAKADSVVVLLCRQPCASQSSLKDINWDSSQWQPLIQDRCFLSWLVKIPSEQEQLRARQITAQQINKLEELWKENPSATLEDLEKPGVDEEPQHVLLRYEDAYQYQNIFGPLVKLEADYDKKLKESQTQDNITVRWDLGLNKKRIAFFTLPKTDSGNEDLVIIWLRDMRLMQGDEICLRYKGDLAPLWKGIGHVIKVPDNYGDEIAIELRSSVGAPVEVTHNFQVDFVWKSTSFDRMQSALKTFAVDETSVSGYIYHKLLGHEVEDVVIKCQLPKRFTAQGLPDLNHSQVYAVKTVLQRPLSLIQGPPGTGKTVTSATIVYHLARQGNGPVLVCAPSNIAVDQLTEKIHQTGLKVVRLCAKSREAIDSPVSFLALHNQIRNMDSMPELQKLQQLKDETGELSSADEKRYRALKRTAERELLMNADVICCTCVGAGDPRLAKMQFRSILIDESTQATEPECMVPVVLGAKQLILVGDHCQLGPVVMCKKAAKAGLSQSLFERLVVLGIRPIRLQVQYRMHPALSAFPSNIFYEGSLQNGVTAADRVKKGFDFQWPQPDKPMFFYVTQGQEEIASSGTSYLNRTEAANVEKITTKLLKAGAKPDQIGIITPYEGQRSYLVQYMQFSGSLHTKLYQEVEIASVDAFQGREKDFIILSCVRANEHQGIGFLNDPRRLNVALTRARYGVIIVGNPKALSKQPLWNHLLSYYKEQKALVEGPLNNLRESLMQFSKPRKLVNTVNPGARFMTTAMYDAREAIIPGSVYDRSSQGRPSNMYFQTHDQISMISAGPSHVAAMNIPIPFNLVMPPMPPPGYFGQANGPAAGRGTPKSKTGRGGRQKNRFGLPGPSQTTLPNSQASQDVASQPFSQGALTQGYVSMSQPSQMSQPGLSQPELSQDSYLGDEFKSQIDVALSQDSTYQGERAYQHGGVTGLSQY
Nature of the experiment: co-IP.

For experiment [2] the target is unchanged. The experiment in a line: co-IP. This is another data set of the same source.

The text below walks through data of doi:10.1101/170100.

Read-outs that look alike come from different tables or passages of the source. No constants are given. Whether binding was seen depends on the method and setting. Binding seen in cells or lysates may run through a third protein. Binding can be weak; no strength is given.

Turning to PolyA-binding protein cytoplasmic 4, the binding entry in experiment [1] and in experiment [2] was “binds” throughout.
